Measurements reported in PubChem BioAssay AID1053209 (Peter MacCallum Cancer Centre, 2014).
This is a random part of about 1,580 reagents. In the full data, 207 (13%) are marked active. 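Rows are single siRNAs; four siRNAs per gene were tested, a gene counting as confirmed only when at least two agree.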 A number with no mark means an inactive call. The numbers tell different reagents against one gene apart. Not all columns of the deposit are shown.

Aim: 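Gene losses that combine with doxorubicin to kill mouse bone cancer cells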 (follow-up of hits)
Cell system: mouse primary osteosarcoma cells
Reagent: single siRNA against mouse genes, 25 nM (text also states 40 nM)
Time to read-out: about 120 h (48 h before drug, then 72 h with drug)
Challenge: doxorubicin 100 nM (about IC30-40), added 48 h after transfection, for 72 h
Measurement: 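ATP-based luminescent viability, with or without doxorubicin, relative to non-targeting control NT1, mean of two replicates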
Reading the numbers: viability with doxorubicin, vs NT1: higher = more viable cells under doxorubicin; viability without drug, vs NT1: higher = more viable cells without drug
Hit rule: 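Active when doxorubicin viability is at most 0.7 of NT1 and drug-free viability lies between 0.7 and 1.1, class LC dox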

| gene | reagent | combined effect class | viability with doxorubicin, vs NT1 | viability without drug, vs NT1 |
| --- | --- | --- | --- | --- |
| Napa | 1 | normal viability with and without drug | 0.72 | 0.84 |
| Napa | 2 | low viability only with doxorubicin; normal without drug (active) | 0.39 | 0.77 |
| Napa | 3 | low viability only with doxorubicin; normal without drug (active) | 0.64 | 0.87 |
| Napa | 4 | normal viability with and without drug | 0.94 | 0.96 |
| Or1j21 (olfactory receptor family 1 subfamily J member 21) | 1 | high viability only with doxorubicin | 1.12 | 1 |
| Or1j21 (olfactory receptor family 1 subfamily J member 21) | 2 | normal viability with and without drug | 1.08 | 1.09 |
| Or1j21 (olfactory receptor family 1 subfamily J member 21) | 3 | low viability only with doxorubicin; normal without drug (active) | 0.64 | 0.76 |
| Or1j21 (olfactory receptor family 1 subfamily J member 21) | 4 | normal viability with and without drug | 0.86 | 1.01 |
| Topbp1 (topoisomerase (DNA) II binding protein 1) | 1 | normal viability with and without drug | 0.77 | 0.94 |
| Topbp1 (topoisomerase (DNA) II binding protein 1) | 2 | normal viability with and without drug | 0.79 | 0.89 |
| Topbp1 (topoisomerase (DNA) II binding protein 1) | 3 | normal viability with and without drug | 0.76 | 0.84 |
| Topbp1 (topoisomerase (DNA) II binding protein 1) | 4 | low viability only with doxorubicin; normal without drug (active) | 0.68 | 0.82 |
| Cherp (calcium homeostasis endoplasmic reticulum protein) | 1 | normal viability with and without drug | 0.83 | 0.95 |
| Cherp (calcium homeostasis endoplasmic reticulum protein) | 2 | normal viability with and without drug | 1.08 | 1.09 |
| Cherp (calcium homeostasis endoplasmic reticulum protein) | 3 | normal viability with and without drug | 1 | 1.06 |
| Cherp (calcium homeostasis endoplasmic reticulum protein) | 4 | normal viability with and without drug | 0.94 | 0.96 |
| Snrpe (small nuclear ribonucleoprotein E) | 1 | low viability with and without drug | 0.16 | 0.36 |
| Snrpe (small nuclear ribonucleoprotein E) | 2 | low viability with and without drug | 0.08 | 0.29 |
| Snrpe (small nuclear ribonucleoprotein E) | 3 | low viability with and without drug | 0.26 | 0.38 |
| Snrpe (small nuclear ribonucleoprotein E) | 4 | low viability with and without drug | 0.15 | 0.33 |
| Snrnp40 (small nuclear ribonucleoprotein 40 (U5)) | 1 | normal viability with and without drug | 0.8 | 0.88 |
| Snrnp40 (small nuclear ribonucleoprotein 40 (U5)) | 2 | high viability only with doxorubicin | 1.1 | 1.03 |
| Snrnp40 (small nuclear ribonucleoprotein 40 (U5)) | 3 | normal viability with and without drug | 1.06 | 1.01 |
| Snrnp40 (small nuclear ribonucleoprotein 40 (U5)) | 4 | normal viability with and without drug | 0.99 | 1.08 |

Sorted by “viability with doxorubicin, vs NT1” (lowest first): some entries from above.
| gene | reagent | combined effect class | viability with doxorubicin, vs NT1 | viability without drug, vs NT1 |
| --- | --- | --- | --- | --- |
| Napa | 3 | low viability only with doxorubicin; normal without drug (active) | 0.64 | 0.87 |
| Napa | 4 | normal viability with and without drug | 0.94 | 0.96 |
| Or1j21 (olfactory receptor family 1 subfamily J member 21) | 1 | high viability only with doxorubicin | 1.12 | 1 |
